{"source": "patent US20050037433A1", "binders": {"B1": {"name": "p16-myc (prototypical p16, PNN1131, tagged with myc) (protein, not shown: small tags and cut ends)", "chain": "MTKKRSKINELEELKLDMRKISNDMEEMCGILNLYMYEDLNYRMNTEFNIIKSQHEKTMLDMNKMIQSIIGSMQYSKELIEDNYSYSIKEDHLLRECTQLNENVRILLNENRRLLVEQAGHKCPVGKKRGSLRRPARTSVSQVPRNSSVI"}}, "key": {"[1]": {"biological_target": "T1, p16-EGFP (prototypical p16, PNN1131, tagged with EGFP) (mouse)", "T1 sequence": "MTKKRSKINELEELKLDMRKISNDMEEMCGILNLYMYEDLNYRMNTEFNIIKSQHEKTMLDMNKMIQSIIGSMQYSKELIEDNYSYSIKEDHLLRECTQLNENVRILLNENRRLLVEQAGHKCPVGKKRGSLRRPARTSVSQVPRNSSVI", "assay": "co-immunoprecipitation with anti-EGFP from co-transfected COS-7 cells, blot with anti-myc (FIG. 6)"}, "[2]": {"biological_target": "T1, p16-EGFP (prototypical p16, PNN1131, tagged with EGFP) (mouse)", "assay": "co-immunoprecipitation with anti-EGFP from co-transfected COS-7 cells, blot with anti-myc"}}, "note": "These are yes or no findings as the source states them, for the method shown. In cells and extracts the contact can be indirect. Some results given as binding are weak or reduced against the parent protein; the word gives no strength. Sequences can lack the tags named with a protein."}
{"binder": "B1", "values": [{"measurement": "binding", "setting": "[1]", "value": "binds"}, {"measurement": "binding", "setting": "[2]", "value": "binds"}]}
